The record followed here is article PMC12758526.

No constants are given. Whether binding was seen depends on the method and setting. Binding seen in cells or lysates may run through a third protein. A yes stands for co-enrichment or nearness to the bait. Other partners may have been found. Sequences can lack the tags named with a protein.

For this test, the target named is T1, SerRS^T-mCherry (seryl-tRNA synthetase variant, mCherry tag inserted at the endogenous serS^T locus) (E. coli (endogenous in KLY SerS^T)) (UniProt P0A8L1).
T1 sequence: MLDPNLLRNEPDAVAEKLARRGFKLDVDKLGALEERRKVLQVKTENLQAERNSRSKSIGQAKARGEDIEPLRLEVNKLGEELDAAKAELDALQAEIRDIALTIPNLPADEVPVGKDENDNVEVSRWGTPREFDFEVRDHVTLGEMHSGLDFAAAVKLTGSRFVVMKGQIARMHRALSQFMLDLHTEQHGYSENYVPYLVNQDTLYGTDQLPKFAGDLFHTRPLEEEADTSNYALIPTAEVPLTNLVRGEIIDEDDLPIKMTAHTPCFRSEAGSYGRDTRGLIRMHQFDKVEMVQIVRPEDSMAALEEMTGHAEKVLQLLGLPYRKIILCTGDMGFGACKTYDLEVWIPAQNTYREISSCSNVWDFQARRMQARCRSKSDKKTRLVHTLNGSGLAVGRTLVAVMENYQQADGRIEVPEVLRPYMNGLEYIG
Description: affinity purification with mass spectrometry; Anti-mCherry nanobody immunomagnetic beads on lysates of strains with SerRS-mCherry at the endogenous locus; cultures at OD600 ~0.2 (upon serine depletion); lysis buffer 50 mM NaCl, 20 mM tris-HCl pH 7.4, with RNase inhibitor and DNase I; quantitative mass spectrometry of the precipitates.

B1: HrpA, ATP-dependent RNA helicase of the DEAH/RHA family (wild-type allele) (enzyme, UniProt P43329 1-1300)
chain: MTEQQKLTFTALQQRLDSLMLRDRLRFSRRLHGVKKVKNPDAQQAIFQEMAKEIDQAAGKVLLREAARPEITYPDNLPVSQKKQDILEAIRDHQVVIVAGETGSGKTTQLPKICMELGRGIKGLIGHTQPRRLAARTVANRIAEELKTEPGGCIGYKVRFSDHVSDNTMVKLMTDGILLAEIQQDRLLMQYDTIIIDEAHERSLNIDFLLGYLKELLPRRPDLKIIITSATIDPERFSRHFNNAPIIEVSGRTYPVEVRYRPIVEEADDTERDQLQAIFDAVDELSQESHGDILIFMSGEREIRDTADALNKLNLRHTEILPLYARLSNSEQNRVFQSHSGRRIVLATNVAETSLTVPGIKYVIDPGTARISRYSYRTKVQRLPIEPISQASANQRKGRCGRVSEGICIRLYSEDDFLSRPEFTDPEILRTNLASVILQMTALGLGDIAAFPFVEAPDKRNIQDGVRLLEELGAITTDEQASAYKLTPLGRQLSQLPVDPRLARMVLEAQKHGCVREAMIITSALSIQDPRERPMDKQQASDEKHRRFHDKESDFLAFVNLWNYLGEQQKALSSNAFRRLCRTDYLNYLRVREWQDIYTQLRQVVKELGIPVNSEPAEYREIHIALLTGLLSHIGMKDADKQEYTGARNARFSIFPGSGLFKKPPKWVMVAELVETSRLWGRIAARIDPEWVEPVAQHLIKRTYSEPHWERAQGAVMATEKVTVYGLPIVAARKVNYSQIDPALCRELFIRHALVEGDWQTRHAFFRENLKLRAEVEELEHKSRRRDILVDDETLFEFYDQRISHDVISARHFDSWWKKVSRETPDLLNFEKSMLIKEGAEKISKLDYPNFWHQGNLKLRLSYQFEPGADADGVTVHIPLPLLNQVEESGFEWQIPGLRRELVIALIKSLPKPVRRNFVPAPNYAEAFLGRVKPLELPLLDSLERELRRMTGVTVDREDWHWDQVPDHLKITFRVVDDKNKKLKEGRSLQDLKDALKGKVQETLSAVADDGIEQSGLHIWSFGQLPESYEQKRGNYKVKAWPALVDERDSVAIKLFDNPLEQKQAMWNGLRRLLLLNIPSPIKYLHEKLPNKAKLGLYFNPYGKVLELIDDCISCGVDKLIDANGGPVWTEEGFAALHEKVRAELNDTVVDIAKQVEQILTAVFNINKRLKGRVDMTMALGLSDIKAQMGGLVYRGFVTGNGFKRLGDTLRYLQAIEKRLEKLAVDPHRDRAQMLKVENVQQAWQQWINKLPPARREDEDVKEIRWMIEELRVSYFAQQLGTPYPISDKRILQAMEQISG
With B1, the binding entry is reported as “binds”.
